Measurements from “University of Dundee, Small-Polar-MMV Screening Library” (2021), ChEMBL document CHEMBL3988442.

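Viability assay of Plasmodium falciparum sporozoites; the read-out is not stated. The concentration is filed as 10 mM, unlikely as a test dose, so the dose is not known. The record gives no direction; compounds that gave an IC50 in retests scored well above the rest, so higher reads as lower viability. Strong results were mostly tested again. Size under these conditions: about 34,000 compounds, about 280 of them at 50% or above in at least one test.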

Each number is a percent effect as filed. The controls that fix the scale are not given in the record; negative values are as filed. The compounds are a random part of those screened. Two or more numbers in one place are separate tests of the same structure; such repeats can differ widely.

- Cc1nc(C)n(CC2CCCCN2CCCS(=O)(=O)N(C)C)n1 (stereo unspecified) : -17.29%
- O=C(c1cnc(COc2ccccc2)nc1O)N1CCOCC1 : -2.016%
- CC(C)n1nc2c(cc1=O)CN(Cc1ccc(-n3cccn3)cc1)CC2 : 4.796%
- CSc1ncc(C(=O)NCCn2nccc2C)cn1 : -12.59%
- N[C@@H]1CC[C@@H](Nc2nccc(CCC(F)(F)F)n2)C1 : 2.487%
- O=C1COc2cc(C(=O)NS(=O)(=O)c3ccccc3F)ccc2N1 : 1.874%
- COCCCNC(=O)CN1CCC(N2CCN(C)C2=O)CC1 : 6.277%
- O=C(O)C(F)(F)F.[H][C@@]12COC[C@]1(c1nnc(C)o1)CN(S(=O)(=O)c1cccnc1)C2 : 11.38%
- N#Cc1cc(C#N)c(SCCC(=O)Nc2ccc(F)cc2)nc1N : 7.692%
- O=C(Cc1c[nH]c2ccccc12)N1CCC(Nc2ccccc2)CC1 : 8.757%
- NCC(=O)N1CCCC(O)(CN2CCN(c3ccccc3)CC2)CC1 (stereo unspecified) : 12.98%
- COCC(=O)N1CCCC1c1nccnc1Nc1ncccn1 (stereo unspecified) : 7.364%
- CN(C)S(=O)(=O)c1ccc(OCCNCCn2cccn2)cc1 : -16.23%
- Cc1cc(C)c(C(=O)N2CCOCC2c2c(C)n[nH]c2C)o1 (stereo unspecified) : 2.442%
- COc1ccc(CN2CCn3c(C(=O)N(C)C)cnc3C2)cc1.O=C(O)C(F)(F)F : 9.021%
- Cc1nn(CC(=O)N2CCCCC2Cn2cccn2)c(C)c1Cl (stereo unspecified) : -10.6%
- Cc1cc(CN(C)C(C(=O)O)c2cccc(C(F)(F)F)c2)on1 (stereo unspecified) : 0.2595%
- Cc1cnn(CC2CCCN2CC(=O)Nc2nccs2)c1 (stereo unspecified) : -2.836% and 7.793% and 11.74%
- CCOc1ccc(NC(=O)NCc2cccnc2OCC)cc1 : 5.898%
- CC1(C)CC(N(Cc2ccccc2)Cc2cccnc2)CC(C)(C)N1.O=C(O)CC(O)(CC(=O)O)C(=O)O : -4.384%
- CCc1nccn1-c1cncc(C2CCCN2Cc2ccccn2)n1 (stereo unspecified) : -8.368%
- CC(C)(C)c1nc(CN2CCN(C(=O)c3cnccn3)CC2)cs1 : 10.46%
- O=C(O)C(F)(F)F.O=C(O)C(F)(F)F.[H][C@@]12OCCN(CC3CCOCC3)[C@@]1([H])CC[C@H]2OCCCn1cccn1 : 0%
- O=C(c1cccs1)N1CCN(C(=O)c2ncoc2-c2ccco2)CC1 : 1.224%
- Cc1cnn(C2CCCN(C(=O)c3cn(-c4ccccc4)nc3C)C2)c1 (stereo unspecified) : 7.558%
- Cn1nnnc1SCC1Cc2ccccc2O1 (stereo unspecified) : -0.09083%
- O=C(c1cccnc1N1CCOC(c2ccc(Cl)cc2)C1)N1CCCC1 (stereo unspecified) : -16.48% and -29.13%
- O=C(O)C(F)(F)F.[H][C@@]12CCN(c3nnc(C)s3)C[C@]1([H])O[C@@H](C(=O)N1CCOCC1)C2 : -22.17%
- CCc1nc(CCNC(=O)NC2CCC(=O)N(C)C2)sc1C (stereo unspecified) : 3.905%
- Cc1noc(NCc2cn(C)nc2-c2cccnc2)n1 : 1.74%
- O=C(O)C(F)(F)F.[H][C@]12CCC[C@@H](CNc3ncccn3)[C@@]1([H])CN(Cc1cc[nH]n1)C2 : 2.706%
- CCCN(CCc1ccccn1)C(=O)CCc1cnn(C)c1 : -10.56%
- c1cc2n(n1)CC(CNCc1ccc(OC3CCCC3)nc1)CN2 (stereo unspecified) : 0.8458%
- CC(C)n1nc(CN2CCOCC2)c2c1CN(C(=O)c1ccno1)C2.O=C(O)C(F)(F)F : 15.24%
- OC(COc1ccc(F)cc1)CN1CCC(Cn2cccn2)CC1 (stereo unspecified) : -8.889%
- CC(C)c1nccn1C1CCCN(C(=O)c2cnn(C)c2C2CC2)C1 (stereo unspecified) : 2.526%
- Cc1noc(C(C)N2CCN(c3ccc(C#N)cn3)CC2)n1 (stereo unspecified) : 3.133%
- N#Cc1ccccc1N1CCCN(C(=O)CCc2nccs2)CC1 : -6.661%
- COc1cc(N2CCC3(CCN(Cc4nccs4)CC3)C2)ncn1.O=C(O)C(F)(F)F : -3.503%
- O=C(Nc1ccccc1OCC1CCCCO1)c1ccc(O)nc1 (stereo unspecified) : 0%
- CNC(=O)c1ccc(CN(C(=O)c2scnc2C)C2CC2)cc1 : 1.127%
- O=C(O)C(F)(F)F.O=C(O)C(F)(F)F.[H][C@@]12CCCO[C@]1([H])[C@H](N(C)Cc1ccco1)CN(Cc1ccsc1)C2 : -12.65%
- CNc1oc(-c2ccc(OC)c(S(=O)(=O)N3CCCCC3)c2)nc1C#N : 5.702%
- Cc1cnn(CC2CCCN2CC(=O)Nc2nc(C)cs2)c1 (stereo unspecified) : 7.289%
- Cc1ccc(CC2CCCN(S(C)(=O)=O)C2)nc1 (stereo unspecified) : 6.192%
- Cl.Cn1cc(C(=O)NCc2cncc3c2CCN(S(C)(=O)=O)C3)cn1 : 1.519%
- O=C(c1cccn2ccnc12)N1CCCN(c2cccnn2)CC1 : -24.97%
- Cc1nc(C)n(C2CCCN(C(=O)c3ccc4nccn4c3)C2)n1 (stereo unspecified) : -0.2681%
- CC(=O)Nc1ccc(Oc2cc(C)nc(C3CCCNC3)c2)cc1.Cl (stereo unspecified) : 13.73%
- Cc1cccc(CN2C(=O)OCC2CO)c1F (stereo unspecified) : -12.98% and -0.2796%
- c1ccc2oc(N3CCn4c(nnc4C4CC4)C3)nc2c1 : -18.73%
- O=C(O)C(F)(F)F.O=C(O)C(F)(F)F.O=C(O)C(F)(F)F.[H][C@@]12CCN(Cc3ccc(C)o3)C[C@]1([H])[C@@H](CN1CCN(C)CC1)OC2 : 7.581%
- CCn1ccnc1CN1CCN(CCOc2ccccc2C#N)CC1 : -1.885%
- O=C(NCC(F)F)c1ccc(S(=O)(=O)NCCc2c[nH]cn2)cc1 : -22.31%
- CC(C)NC(=O)N1CCOC2(CNC2)C1 : -5.304%
- CCOc1nnc(CN(C)CC2CCCN2c2cccnn2)s1 (stereo unspecified) : 9.357%
- O=C(O)C(F)(F)F.O=C(O)C(F)(F)F.O=C(O)C(F)(F)F.[H][C@@]12CO[C@@H](CN3CCN(C)CC3)[C@]1([H])CCN(Cc1ccsc1)C2 : 8.333%

Repeated from the top, 6 entries:

{"compound": "Cc1nc(C)n(CC2CCCCN2CCCS(=O)(=O)N(C)C)n1", "stereo": "stereo unspecified", "percent effect": -17.29}
{"compound": "O=C(c1cnc(COc2ccccc2)nc1O)N1CCOCC1", "percent effect": -2.016}
{"compound": "CC(C)n1nc2c(cc1=O)CN(Cc1ccc(-n3cccn3)cc1)CC2", "percent effect": 4.796}
{"compound": "CSc1ncc(C(=O)NCCn2nccc2C)cn1", "percent effect": -12.59}
{"compound": "N[C@@H]1CC[C@@H](Nc2nccc(CCC(F)(F)F)n2)C1", "percent effect": 2.487}
{"compound": "O=C1COc2cc(C(=O)NS(=O)(=O)c3ccccc3F)ccc2N1", "percent effect": 1.874}